Experimental data from EP0316690A2, “Agent for the treatment of ischemic heart diseases” (Dr. Karl Thomae GmbH, priority 1987, dated 1989).
Some results were stated once for a whole list of compounds, not compound by compound.

Biological target: T1, frequenzbeeinflussende M-Rezeptoren (Rattus norvegicus, UniProt P10980)
T1 construct: danach das Herz entnommen; from tissue; host or cells: isolated perfused Langendorff heart of male Wistar rats
T1 sequence (P10980 1-466): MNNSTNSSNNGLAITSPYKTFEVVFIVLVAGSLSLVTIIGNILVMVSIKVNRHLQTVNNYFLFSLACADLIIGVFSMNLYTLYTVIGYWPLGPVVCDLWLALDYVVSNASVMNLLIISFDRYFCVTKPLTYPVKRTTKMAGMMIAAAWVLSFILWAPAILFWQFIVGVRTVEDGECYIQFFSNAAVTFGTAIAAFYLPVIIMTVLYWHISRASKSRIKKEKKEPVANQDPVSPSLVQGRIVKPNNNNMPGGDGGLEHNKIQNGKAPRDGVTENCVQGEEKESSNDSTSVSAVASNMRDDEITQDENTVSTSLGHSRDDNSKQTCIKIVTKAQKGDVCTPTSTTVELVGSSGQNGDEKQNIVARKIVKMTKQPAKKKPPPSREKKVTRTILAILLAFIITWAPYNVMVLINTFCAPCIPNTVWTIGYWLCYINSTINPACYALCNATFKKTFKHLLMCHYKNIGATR
Experiment: Isolated perfused Langendorff heart: antagonism of the negative chronotropic carbachol effect on heart rate (HR/HF)
Design: species or system Wistar Ratten
Conditions: spontanschlagendes Herz, agonist Carbachol
Procedure: Meßparameter sind Herzfrequenz und Coronarfluß.
Männliche Wistar Ratten mit einem Körpergewicht zwischen 300 und 350 g wurden mit Pentobarbital (70 mg/kg i.p.) anaesthe siert. […] Die Herzen wurden über die Aorta mit Krebs-Henseleit-Puffer (KHB) retograd bei einem konstanten Druck von 70 mm Hg perfundiert. Die Zusammensetzung des KHB betrug in mM: Kochsalz 114, Kaliumchlorid 4,7, Natriumbicarbonat 23,6, Kaliumdihydrogenphosphat 1,2, Magnesiumsulfat 1,1, Calziumchlorid 2,5. 11 mM Glucose wurden als Substrat beigefügt. Die Herzfrequenz (HR) wurde durch einen Tachographen (IFD, Mülheim) gemessen, der Coronarfluß (CF) wurde mittels eines elektromagnetischen Flowmeters (IFD, Mülheim) in Verbindung mit einer Sonde in dem zuführenden Teil der Aorta bestimmt.
Nach einer 15-minütigen Stabilisierungsphase in allen Experimenten wurde die erste Dosis-Wirkungs-Kurve erstellt. Dies geschah durch die Gabe von dem Fluß angepaßten Bolus-Injektionen (0,01 ml/10 ml CF) mit ansteigenden Dosierungen von Carbachol (10⁻⁶ bis 10⁻²M). Danach wurde die niedrigste Dosis des Antagonisten dem Perfusat beigegeben und die Dosis-Wirkungs-Kurve erneut aufgenommen. Darauffolgend gab man eine höhere Dosis des Antagonisten zu und es wurde der Einfluß von Carbachol auf den Coronarfluß (CF) und die Herzfrequenz (HF) erneut durch die Aufnahme von Dosis-Wirkungs-Kurven quantifiziert.

Question: With `CN1CCC(CC(=O)N2c3ccccc3C(=O)Nc3cccc(Cl)c32)CC1` (single isomer, unassigned) [Substanz II, (+)-6-Chlor-5,10-dihydro-5-[(1-methyl-4-piperidinyl)acetyl]-11H-dibenzo[b,e][1,4]diazepin-11-on] as the compound, how does the “Type of antagonism of the negativen chronotropen Effekt von Carbachol” value read?
Answer: antagonisierten kompetitiv

Question: For `CN1CCC(CC(=O)N2c3ccccc3C(=O)Nc3cccc(Cl)c32)CC1` (racemic) [Substanz I, 6-Chlor-5,10-dihydro-5-[(1-methyl-4-piperidinyl)acetyl]-11H-dibenzo[b,e][1,4]diazepin-11-on], which “Type of antagonism of the negativen chronotropen Effekt von Carbachol” value is on record?
Answer: antagonisierten kompetitiv
